Results are given in words; binding and its absence hold for the method and conditions named. A result given as binding can be weak or reduced; the word gives no strength.
Molecular target: T1, Nse5-TAP (S. cerevisiae) (UniProt Q03718)
T1 sequence: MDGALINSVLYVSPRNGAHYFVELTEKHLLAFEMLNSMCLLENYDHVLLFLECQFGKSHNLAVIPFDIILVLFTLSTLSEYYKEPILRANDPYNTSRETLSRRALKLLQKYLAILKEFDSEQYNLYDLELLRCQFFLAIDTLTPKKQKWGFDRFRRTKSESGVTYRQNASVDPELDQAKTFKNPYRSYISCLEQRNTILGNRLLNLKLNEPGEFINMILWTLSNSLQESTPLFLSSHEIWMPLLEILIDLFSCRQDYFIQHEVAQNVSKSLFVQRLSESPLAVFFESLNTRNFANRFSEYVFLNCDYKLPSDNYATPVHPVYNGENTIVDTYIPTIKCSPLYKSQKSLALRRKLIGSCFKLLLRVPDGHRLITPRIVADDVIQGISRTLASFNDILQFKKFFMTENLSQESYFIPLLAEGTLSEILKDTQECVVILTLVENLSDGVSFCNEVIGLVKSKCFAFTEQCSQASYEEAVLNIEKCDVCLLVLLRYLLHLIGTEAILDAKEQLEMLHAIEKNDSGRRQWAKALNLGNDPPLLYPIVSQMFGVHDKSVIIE
Test: tandem affinity purification; Nse5/6 subcomplex overexpressed in S. cerevisiae and purified (IgG Sepharose, TEV protease, calmodulin Sepharose); CBB-stained SDS-PAGE

- binding: binds
Substance: Nse6 (S. cerevisiae)

Source: article PMC10132971
